Drawing on the supplement of paper PMC12819154, “High-throughput peptide-centric local stability assay extends protein–ligand identification to membrane proteins, tissues and bacteria” (Nature Structural & Molecular Biology, 2025), this text covers log2 fold change for 31 targets.

The chains behind the UniProt entries cited, without tags or fusion partners. Where a name states a change or a piece, a line headed by the entry shows the natural chain unless it says otherwise.
UniProt P30860: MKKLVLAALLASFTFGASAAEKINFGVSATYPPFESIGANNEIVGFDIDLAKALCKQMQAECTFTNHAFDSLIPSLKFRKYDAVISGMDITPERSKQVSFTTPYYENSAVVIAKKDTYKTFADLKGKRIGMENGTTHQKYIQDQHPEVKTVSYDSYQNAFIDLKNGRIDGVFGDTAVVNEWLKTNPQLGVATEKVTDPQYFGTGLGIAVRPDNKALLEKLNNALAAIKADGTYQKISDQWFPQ
UniProt P24200: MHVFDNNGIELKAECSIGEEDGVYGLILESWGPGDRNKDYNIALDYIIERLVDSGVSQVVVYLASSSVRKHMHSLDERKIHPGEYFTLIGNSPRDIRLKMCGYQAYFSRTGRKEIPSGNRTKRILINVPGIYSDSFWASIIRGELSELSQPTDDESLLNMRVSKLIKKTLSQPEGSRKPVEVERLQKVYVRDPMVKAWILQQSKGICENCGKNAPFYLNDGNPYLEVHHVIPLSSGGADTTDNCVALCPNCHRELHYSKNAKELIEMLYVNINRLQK
UniProt P29012: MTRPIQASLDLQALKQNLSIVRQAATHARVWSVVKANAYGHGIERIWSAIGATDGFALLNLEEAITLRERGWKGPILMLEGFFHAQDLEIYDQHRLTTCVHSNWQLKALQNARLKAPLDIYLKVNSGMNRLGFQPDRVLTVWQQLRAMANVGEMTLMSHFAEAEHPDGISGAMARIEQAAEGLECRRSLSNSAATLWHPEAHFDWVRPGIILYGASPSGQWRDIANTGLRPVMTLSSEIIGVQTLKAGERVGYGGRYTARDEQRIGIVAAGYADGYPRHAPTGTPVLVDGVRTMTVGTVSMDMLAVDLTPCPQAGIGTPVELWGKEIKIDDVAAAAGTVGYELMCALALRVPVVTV
UniProt P32108: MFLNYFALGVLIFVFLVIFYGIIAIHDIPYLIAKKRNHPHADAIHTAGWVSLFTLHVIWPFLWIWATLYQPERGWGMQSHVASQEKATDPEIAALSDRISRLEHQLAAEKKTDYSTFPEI
UniProt P27126: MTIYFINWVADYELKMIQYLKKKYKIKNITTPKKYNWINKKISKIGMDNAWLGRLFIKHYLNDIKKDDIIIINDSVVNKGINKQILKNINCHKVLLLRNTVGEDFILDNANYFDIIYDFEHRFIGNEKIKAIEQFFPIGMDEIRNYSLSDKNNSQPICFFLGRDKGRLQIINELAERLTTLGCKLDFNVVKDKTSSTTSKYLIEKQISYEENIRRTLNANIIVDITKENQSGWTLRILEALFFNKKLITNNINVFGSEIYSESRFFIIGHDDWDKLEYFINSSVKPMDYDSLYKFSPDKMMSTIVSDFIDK
UniProt P30744: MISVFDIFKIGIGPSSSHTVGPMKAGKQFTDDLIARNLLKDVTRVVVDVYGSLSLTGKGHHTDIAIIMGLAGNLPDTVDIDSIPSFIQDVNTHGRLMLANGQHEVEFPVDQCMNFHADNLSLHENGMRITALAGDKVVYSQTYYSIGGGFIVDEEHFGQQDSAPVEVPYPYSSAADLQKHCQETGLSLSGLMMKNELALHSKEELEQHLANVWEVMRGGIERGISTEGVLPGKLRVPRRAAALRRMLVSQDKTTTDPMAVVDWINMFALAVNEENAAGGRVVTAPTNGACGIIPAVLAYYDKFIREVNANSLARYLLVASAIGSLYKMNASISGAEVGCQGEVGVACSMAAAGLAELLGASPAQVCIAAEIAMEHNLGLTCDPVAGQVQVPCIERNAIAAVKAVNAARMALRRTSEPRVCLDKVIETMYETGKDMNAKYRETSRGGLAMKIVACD
UniProt P24205: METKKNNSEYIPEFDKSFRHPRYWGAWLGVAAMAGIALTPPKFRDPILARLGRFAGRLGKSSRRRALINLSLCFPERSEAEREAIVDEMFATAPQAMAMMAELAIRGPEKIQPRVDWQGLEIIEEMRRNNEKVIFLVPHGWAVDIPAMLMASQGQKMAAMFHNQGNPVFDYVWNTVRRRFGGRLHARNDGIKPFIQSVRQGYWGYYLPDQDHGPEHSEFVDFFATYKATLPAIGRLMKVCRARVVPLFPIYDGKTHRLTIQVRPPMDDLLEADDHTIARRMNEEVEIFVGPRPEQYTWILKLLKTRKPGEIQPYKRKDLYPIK
UniProt P31443: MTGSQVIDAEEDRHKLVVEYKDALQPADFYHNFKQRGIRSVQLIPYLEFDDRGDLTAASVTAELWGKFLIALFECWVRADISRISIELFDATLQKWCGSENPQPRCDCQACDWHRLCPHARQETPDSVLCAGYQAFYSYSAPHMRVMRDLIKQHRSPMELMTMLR
UniProt P24203: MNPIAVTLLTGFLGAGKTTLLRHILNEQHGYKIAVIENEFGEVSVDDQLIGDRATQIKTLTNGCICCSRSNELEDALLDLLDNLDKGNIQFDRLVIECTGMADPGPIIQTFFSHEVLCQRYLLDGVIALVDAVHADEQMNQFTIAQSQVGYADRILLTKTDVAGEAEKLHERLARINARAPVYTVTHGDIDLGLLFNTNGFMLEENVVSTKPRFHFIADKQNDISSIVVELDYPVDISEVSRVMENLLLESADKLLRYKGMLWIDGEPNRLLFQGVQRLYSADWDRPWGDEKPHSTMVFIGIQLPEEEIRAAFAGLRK
UniProt P29744: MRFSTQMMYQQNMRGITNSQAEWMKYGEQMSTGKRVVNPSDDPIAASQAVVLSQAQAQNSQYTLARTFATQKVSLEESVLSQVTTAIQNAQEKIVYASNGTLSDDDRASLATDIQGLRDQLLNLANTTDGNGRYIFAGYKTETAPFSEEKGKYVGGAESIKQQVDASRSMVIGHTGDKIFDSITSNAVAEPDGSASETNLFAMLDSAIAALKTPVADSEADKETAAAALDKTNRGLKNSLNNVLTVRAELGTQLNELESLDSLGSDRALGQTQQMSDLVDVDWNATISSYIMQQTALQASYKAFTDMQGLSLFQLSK
UniProt P32719: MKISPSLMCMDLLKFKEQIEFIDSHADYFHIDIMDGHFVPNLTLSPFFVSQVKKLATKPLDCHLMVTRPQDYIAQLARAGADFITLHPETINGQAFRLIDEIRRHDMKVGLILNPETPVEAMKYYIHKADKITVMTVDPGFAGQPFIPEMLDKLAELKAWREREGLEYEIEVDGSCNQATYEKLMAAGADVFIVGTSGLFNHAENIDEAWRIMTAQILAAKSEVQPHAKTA
UniProt P33030: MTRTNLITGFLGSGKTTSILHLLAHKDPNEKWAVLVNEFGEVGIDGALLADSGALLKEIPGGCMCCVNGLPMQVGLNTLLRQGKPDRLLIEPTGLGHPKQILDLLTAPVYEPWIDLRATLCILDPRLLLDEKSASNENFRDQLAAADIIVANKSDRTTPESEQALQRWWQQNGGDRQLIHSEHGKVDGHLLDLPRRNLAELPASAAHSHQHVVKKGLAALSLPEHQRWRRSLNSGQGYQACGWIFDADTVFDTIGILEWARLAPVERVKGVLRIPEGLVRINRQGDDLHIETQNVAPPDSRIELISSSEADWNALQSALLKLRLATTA
UniProt P33595: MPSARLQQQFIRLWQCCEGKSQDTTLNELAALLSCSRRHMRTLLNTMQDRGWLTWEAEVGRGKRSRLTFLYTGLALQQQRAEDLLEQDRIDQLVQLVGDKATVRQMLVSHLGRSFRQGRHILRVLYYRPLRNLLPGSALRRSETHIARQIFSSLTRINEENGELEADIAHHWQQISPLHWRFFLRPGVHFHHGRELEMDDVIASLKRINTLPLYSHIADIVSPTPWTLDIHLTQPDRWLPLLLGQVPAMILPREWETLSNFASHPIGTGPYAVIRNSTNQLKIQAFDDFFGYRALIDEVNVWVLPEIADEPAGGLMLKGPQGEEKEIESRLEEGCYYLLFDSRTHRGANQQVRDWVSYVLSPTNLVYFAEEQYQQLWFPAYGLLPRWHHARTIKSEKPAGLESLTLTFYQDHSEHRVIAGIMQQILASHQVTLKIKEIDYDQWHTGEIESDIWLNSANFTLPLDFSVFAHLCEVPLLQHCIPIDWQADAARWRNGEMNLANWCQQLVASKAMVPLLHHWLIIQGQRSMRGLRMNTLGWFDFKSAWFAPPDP
UniProt P27550: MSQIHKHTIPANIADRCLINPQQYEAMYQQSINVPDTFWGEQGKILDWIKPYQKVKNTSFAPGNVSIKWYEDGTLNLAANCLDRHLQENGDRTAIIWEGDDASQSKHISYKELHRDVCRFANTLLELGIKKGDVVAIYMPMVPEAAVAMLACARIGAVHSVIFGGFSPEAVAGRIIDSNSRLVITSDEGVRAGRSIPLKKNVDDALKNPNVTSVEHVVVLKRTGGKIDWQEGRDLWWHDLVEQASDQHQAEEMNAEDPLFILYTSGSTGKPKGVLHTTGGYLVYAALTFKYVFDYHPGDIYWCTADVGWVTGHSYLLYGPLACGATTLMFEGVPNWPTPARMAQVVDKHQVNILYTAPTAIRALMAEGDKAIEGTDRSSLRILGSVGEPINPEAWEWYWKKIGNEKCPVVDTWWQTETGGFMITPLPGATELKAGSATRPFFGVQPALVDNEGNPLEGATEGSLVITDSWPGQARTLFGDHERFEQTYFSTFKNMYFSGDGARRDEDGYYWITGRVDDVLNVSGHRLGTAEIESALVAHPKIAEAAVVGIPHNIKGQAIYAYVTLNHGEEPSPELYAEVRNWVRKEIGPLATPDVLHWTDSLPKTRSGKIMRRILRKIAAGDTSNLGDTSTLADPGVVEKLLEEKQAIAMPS
UniProt P33599: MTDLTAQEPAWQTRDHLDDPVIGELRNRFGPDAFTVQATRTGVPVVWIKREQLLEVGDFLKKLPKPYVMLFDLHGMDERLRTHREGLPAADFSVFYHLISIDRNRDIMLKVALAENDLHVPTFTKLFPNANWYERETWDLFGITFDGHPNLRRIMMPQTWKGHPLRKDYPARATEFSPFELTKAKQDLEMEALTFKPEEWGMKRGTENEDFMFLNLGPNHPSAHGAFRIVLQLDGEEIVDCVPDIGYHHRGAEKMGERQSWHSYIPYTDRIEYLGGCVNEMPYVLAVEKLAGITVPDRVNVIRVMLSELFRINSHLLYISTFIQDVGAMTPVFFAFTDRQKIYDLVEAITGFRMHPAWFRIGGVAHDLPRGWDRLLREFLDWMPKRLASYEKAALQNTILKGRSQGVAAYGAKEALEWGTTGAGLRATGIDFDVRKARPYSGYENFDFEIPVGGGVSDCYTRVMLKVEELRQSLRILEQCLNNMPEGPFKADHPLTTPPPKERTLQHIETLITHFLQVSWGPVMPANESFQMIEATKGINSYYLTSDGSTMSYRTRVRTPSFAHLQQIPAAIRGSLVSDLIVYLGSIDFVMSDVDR
UniProt P25798: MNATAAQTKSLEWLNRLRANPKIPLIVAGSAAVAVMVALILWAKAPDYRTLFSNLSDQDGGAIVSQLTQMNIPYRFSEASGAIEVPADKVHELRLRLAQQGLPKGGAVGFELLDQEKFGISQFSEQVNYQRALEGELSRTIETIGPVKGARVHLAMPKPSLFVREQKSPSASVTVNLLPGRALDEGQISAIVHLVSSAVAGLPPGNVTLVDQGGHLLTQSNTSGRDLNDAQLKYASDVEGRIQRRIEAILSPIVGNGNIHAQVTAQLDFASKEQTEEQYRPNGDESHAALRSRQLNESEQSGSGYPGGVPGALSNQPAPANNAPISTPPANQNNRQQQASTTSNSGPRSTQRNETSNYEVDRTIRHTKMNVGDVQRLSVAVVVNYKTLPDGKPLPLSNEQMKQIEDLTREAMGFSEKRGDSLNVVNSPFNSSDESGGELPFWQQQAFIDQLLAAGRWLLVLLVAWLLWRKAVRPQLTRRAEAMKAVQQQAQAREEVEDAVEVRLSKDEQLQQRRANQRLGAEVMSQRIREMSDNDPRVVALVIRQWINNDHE
UniProt P33025: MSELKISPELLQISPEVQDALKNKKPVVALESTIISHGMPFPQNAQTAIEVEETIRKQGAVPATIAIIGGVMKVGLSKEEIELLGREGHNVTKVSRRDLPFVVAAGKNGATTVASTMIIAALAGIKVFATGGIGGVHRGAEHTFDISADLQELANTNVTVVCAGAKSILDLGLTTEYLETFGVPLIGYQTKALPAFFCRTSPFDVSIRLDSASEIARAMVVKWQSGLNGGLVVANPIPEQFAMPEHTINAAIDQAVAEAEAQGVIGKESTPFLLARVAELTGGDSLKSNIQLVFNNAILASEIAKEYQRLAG
UniProt P25894: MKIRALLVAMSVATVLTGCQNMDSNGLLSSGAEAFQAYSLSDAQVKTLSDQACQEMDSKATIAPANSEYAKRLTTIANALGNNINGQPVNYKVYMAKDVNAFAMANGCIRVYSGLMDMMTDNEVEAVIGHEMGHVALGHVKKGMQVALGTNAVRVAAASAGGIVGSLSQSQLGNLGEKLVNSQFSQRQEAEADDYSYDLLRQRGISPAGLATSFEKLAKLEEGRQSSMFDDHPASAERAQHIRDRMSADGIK
UniProt P27294: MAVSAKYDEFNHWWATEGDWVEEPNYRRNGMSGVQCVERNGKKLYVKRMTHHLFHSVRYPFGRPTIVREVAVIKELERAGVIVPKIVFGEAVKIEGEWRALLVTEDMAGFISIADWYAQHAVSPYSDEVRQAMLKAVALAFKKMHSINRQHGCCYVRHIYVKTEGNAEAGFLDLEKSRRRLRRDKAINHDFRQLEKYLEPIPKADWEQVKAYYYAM

The list shows a part of the results. Small differences around the control level are noise.

Compound in the assay: CC1(C)S[C@@H]2[C@H](NC(=O)[C@H](N)c3ccccc3)C(=O)N2[C@H]1C(=O)O [ampicillin]
The experiment in a line: log2 fold change of tryptic peptide abundance, ligand vs vehicle (limited proteolysis) (log2 ratio); higher = more trypsin-susceptible (destabilized). The settings on record: ligand concentration: 10 uM; sample: E. coli crude lysate.
Take “UniProt P31663 (peptide sequence: KIAPGLYK, peptide start residue: 199)”: the log2 fold change worked out at 0.344.
Consider “UniProt P30860 (peptide sequence: KYDAVISGMDITPER, peptide start residue: 80)”, for which the log2 fold change is -0.173.
Turning to “UniProt P24200 (peptide sequence: TLSQPEGSRKPVEVER, peptide start residue: 169)”, the log2 fold change was -0.644.
The result for “UniProt P29012 (peptide sequence: IEQAAEGLECRR, peptide start residue: 176)” reads -0.224.
“UniProt P30844 (peptide sequence: THHIDVAPLVAR, peptide start residue: 171)”: the log2 fold change is -0.107.
Consider “UniProt P32108 (peptide sequence: LEHQLAAEK, peptide start residue: 102)”, for which the log2 fold change was -0.106.
Regarding “UniProt P27126 (peptide sequence: KDDIIIINDSVVNK, peptide start residue: 66)”, the log2 fold change was 0.423.
Take “UniProt P30149 (peptide sequence: LSHYLSR, peptide start residue: 208)”: the log2 fold change worked out at 0.0766.
The result for “UniProt P30744 (peptide sequence: NLLKDVTR, peptide start residue: 37)” reads -0.554.
The result for “UniProt P24205 (peptide sequence: KDLYPIK, peptide start residue: 317)” reads 0.211; that for “UniProt P31443 (peptide sequence: SPMELMTMLR, peptide start residue: 156)”, -0.405; that for “UniProt P30130 (peptide sequence: VENQTGVR, peptide start residue: 731)”, 0.565.
The result for “UniProt P31806 (peptide sequence: KNPVSIPHTVWYADDIR, peptide start residue: 8)” reads -0.179; that for “UniProt P32131 (peptide sequence: LSVFNYAHLPTIFAAQRK, peptide start residue: 237)”, -0.645; that for “UniProt P24203 (peptide sequence: ILLTKTDVAGEAEKLHER, peptide start residue: 155)”, -0.423.
Turning to “UniProt P29744 (peptide sequence: GITNSQAEWMK, peptide start residue: 15)”, the log2 fold change is -0.384.
With “UniProt P32719 (peptide sequence: SEVQPHAK, peptide start residue: 222)” the figure was 0.484; with “UniProt P33030 (peptide sequence: KGLAALSLPEHQR, peptide start residue: 215)”, 0.214.
In the case of “UniProt P33595 (peptide sequence: GPQGEEKEIESR, peptide start residue: 319)”, the log2 fold change was found to be 0.502.
With “UniProt P27550 (peptide sequence: TLFGDHER, peptide start residue: 476)”, the log2 fold change is -0.476.
With “UniProt P33599 (peptide sequence: IMMPQTWK, peptide start residue: 154)” the figure was -0.248; with “UniProt P25798 (peptide sequence: MNVGDVQR, peptide start residue: 369)”, -0.17; with “UniProt P33025 (peptide sequence: ESTPFLLAR, peptide start residue: 268)”, -0.223.
With “UniProt P32153 (peptide sequence: LGQGPGLMLFDKR, peptide start residue: 247)”, the log2 fold change amounted to 0.66.
The result for “UniProt P28629 (peptide sequence: GEPGDHNGPTVFATHSTHK, peptide start residue: 368)” reads 0.862.
Take “UniProt P25740 (peptide sequence: YSEQIPNSR, peptide start residue: 175)”: the log2 fold change is -0.396.
Take “UniProt P27832 (peptide sequence: QLASAAFAQSR, peptide start residue: 98)”: the log2 fold change is -0.291.
With “UniProt P25894 (peptide sequence: GISPAGLATSFEKLAK, peptide start residue: 204)” the figure was -0.533; with “UniProt P27245 (peptide sequence: LIHMVNQKK, peptide start residue: 17)”, 0.355; with “UniProt P27249 (peptide sequence: HLLQHDLSK, peptide start residue: 686)”, -0.299.
Take “UniProt P27294 (peptide sequence: RNGMSGVQCVER, peptide start residue: 28)”: the log2 fold change came out at 0.756.
